Experimental findings from paper PMC5825103 (PLoS ONE, 2018) are described below.

For series [1], the system named is uni-nephrectomised male Sprague-Dawley rats. As to the kind of experiment: organ protection in uni-nephrectomised rats on high-salt diet and aldosterone infusion. Type of series: in vivo, rat. Conditions: for BW end: 4 weeks. On the procedure: The study on uni-nephrectomised rats was carried out by PreClinOmics (Indianapolis, Indiana, USA) and the study protocol was approved under the provisions outlined in PreClinOmics IACUC ethical application proposal #2013–184. […] The rats were maintained on Purina 5001 standard rodent chow ad libitum during facility acclimation (7 days). Animals were housed 2 rats/cage with a standard 12 hour light cycle and were kept at 22 to 25°C. […] Following mini pump implantation, animals were monitored daily for any clinical signs (especially inflammation at the subcutaneous incision site) for 1 week. […] Drinking water was supplemented with 0.3% KCl to prevent hypokalemia. Standard diet (5001, Purina Teklad, USA) was admixed with 6% NaCl and including test substances (Teklad #9386, Purina Teklad, USA) for the remainder of the study. Animals were assigned to treatment groups (n = 8) based on body weight before pump implantation. […] The test substances were provided in powder form to Purina Teklad for pelleting in Teklad 9386 diet at 0.18, 0.54 or 1.8 g kg^-1 diet. […] Test diets were fed ad libitum for 4 weeks. Animals were placed in standard rodent metabolic cages, on 3 separate occasions, with food and water for collection of 24 hour urine samples at baseline and 2 and 4 weeks after pump implantation. Urine samples were collected at room temperature without additives. Urine volume was measured using a graduated cylinder. Urine creatinine (Beckman, OSR6178) was assayed from fresh sample. […] For details on time points, see Method section for the pharmacokinetic-pharmacodynamic analysis. Animals were anesthetized on day 30 using CO2 inhalation and terminated via induction of pneumothorax. Terminal blood samples were collected by cardiac puncture. […] Premier provided pathologists scoring of Hematoxylin and Eosin, and Masson’s Trichrome stained slides for renal fibrosis and glomerulonephritis. Each animal had two blocks processed, one for myocardium (not reported here) and one for kidney. All blocks were grossed, processed and had two slides cut from each block: one stained with Hematoxylin and Eosin and one stained with Masson’s Trichrome. For kidney sections, pathology involved glomerular lesions, interstitial inflammation and tubular lesions (collectively, “glomerulonephritis”). Fibrosis, both within glomeruli and within the interstitial space, was scored using the Masson’s Trichrome stain. […] All scoring was performed on blinded samples.

For series [2], the system named is uni-nephrectomised db/db mice. As to the kind of experiment: organ protection in db/db uni-nephrectomised mice. Conditions: for BG w22 / HbA1c w22 / p-crea end: after 4 weeks treatment; for BW w22: after 4 weeks, AZD9977 or eplerenone 100 mg kg^-1 d^-1 in food, enalapril 200 mg l^-1 in drinking water. Type of series: in vivo.

`CNC(=O)C[C@H]1COc2cc(F)ccc2N1C(=O)c1ccc2c(c1)NC(=O)CO2` [AZD9977, (S)-2-(7-Fluoro-4-(3-oxo-3,4-dihydro-2H-benzo[b][1, 4]oxazine-6-carbonyl)-3,4-dihydro-2H-benzo[b][1, 4]oxazin-3-yl)-N-methylacetamide]: the BW start in series [1] (10 mg kg-1 d-1 group) came to 361 ± 8 g. In addition, in series [1] (10 mg kg-1 d-1 in diet), the BW end is on record as 505 ± 11 g, the WI end worked out at 171 ± 14 mL/24h and the p-crea end came out at 3.4 ± 0.3 µg/mL. In addition, the BW start in series [1] (30 mg kg-1 d-1 group) was 363 ± 5 g. Besides, in series [1] (30 mg kg-1 d-1 in diet), the BW end came out at 514 ± 13 g, the WI end was 159 ± 8 mL/24h and the p-crea end was 3.4 ± 0.2 µg/mL. For the same compound, the BW start in series [1] (100 mg kg-1 d-1 group) is 365 ± 8 g. In series [1] (100 mg kg-1 d-1 in diet), the BW end was 516 ± 20 g, the WI end was 121 ± 10 mL/24h and the p-crea end amounted to 2.9 ± 0.1 µg/mL. Besides, in series [2], the “BG w22” value is reported as greater than 29.4 mM, the “HbA1c w22” value is given as greater than 12%, the p-crea end stood at 5.8 ± 0.2 µg/mL and the “BW w22” value was 41.4 ± 1.9 g.
With `CCOC(=O)[C@H](CCc1ccccc1)N[C@@H](C)C(=O)N1CCC[C@H]1C(=O)O` [enalapril], in series [2], the “BG w22” value is greater than 29.4 mM, the “HbA1c w22” value was greater than 12%, the p-crea end turned out to be 5.0 ± 0.2 µg/mL and the “BW w22” value was 39.3 ± 1.8 g.
As for `COC(=O)[C@@H]1CC2=CC(=O)CC[C@]2(C)[C@@]23O[C@@H]2C[C@@]2(C)[C@@H](CC[C@@]24CCC(=O)O4)[C@H]13` [eplerenone], the BW start in series [1] (10 mg kg-1 d-1 group) is listed as 361 ± 4 g. Moreover, in series [1] (10 mg kg-1 d-1 in diet), the BW end is recorded as 519 ± 14 g, the WI end came to 144 ± 7 mL/24h and the p-crea end came out at 2.9 ± 0.1 µg/mL. Moreover, the BW start in series [1] (30 mg kg-1 d-1 group) is on record as 361 ± 5 g. Also, in series [1] (30 mg kg-1 d-1 in diet), the BW end amounted to 520 ± 15 g, the WI end was 129 ± 6 mL/24h and the p-crea end was 3.2 ± 0.2 µg/mL. In addition, in series [2], the “BG w22” value is listed as greater than 29.4 mM, the “HbA1c w22” value is greater than 12%, the p-crea end was determined as 5.9 ± 0.2 µg/mL and the “BW w22” value is 42.5 ± 1.8 g.
